The assay concerns the target KLF4 (mouse (endogenous in V6.5 ES cells)) (UniProt Q60793). The experiment in a line: co-IP.

Amino acid sequences for entries named in this document (tags omitted).
UniProt Q60793: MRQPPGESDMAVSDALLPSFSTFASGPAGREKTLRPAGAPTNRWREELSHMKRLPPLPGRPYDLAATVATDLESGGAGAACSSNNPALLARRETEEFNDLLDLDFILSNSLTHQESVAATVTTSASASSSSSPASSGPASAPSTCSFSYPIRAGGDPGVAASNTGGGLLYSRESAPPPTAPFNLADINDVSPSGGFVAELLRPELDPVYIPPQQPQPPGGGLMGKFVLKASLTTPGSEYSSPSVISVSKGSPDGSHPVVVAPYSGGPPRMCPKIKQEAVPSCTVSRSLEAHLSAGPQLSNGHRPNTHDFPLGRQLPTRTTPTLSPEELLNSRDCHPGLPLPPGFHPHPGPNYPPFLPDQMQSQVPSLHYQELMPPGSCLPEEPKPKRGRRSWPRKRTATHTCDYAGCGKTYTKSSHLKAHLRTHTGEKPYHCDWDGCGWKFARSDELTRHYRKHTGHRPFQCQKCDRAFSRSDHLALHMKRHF
UniProt Q9CQJ4: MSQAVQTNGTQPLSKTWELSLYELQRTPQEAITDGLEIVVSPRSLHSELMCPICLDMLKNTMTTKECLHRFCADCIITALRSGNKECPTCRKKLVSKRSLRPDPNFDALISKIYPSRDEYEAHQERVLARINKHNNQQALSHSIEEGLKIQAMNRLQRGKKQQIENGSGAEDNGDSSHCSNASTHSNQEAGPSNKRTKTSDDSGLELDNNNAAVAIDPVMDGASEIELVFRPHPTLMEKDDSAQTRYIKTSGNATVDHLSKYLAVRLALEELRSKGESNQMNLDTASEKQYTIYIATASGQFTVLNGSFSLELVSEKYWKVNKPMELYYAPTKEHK
UniProt Q80U70: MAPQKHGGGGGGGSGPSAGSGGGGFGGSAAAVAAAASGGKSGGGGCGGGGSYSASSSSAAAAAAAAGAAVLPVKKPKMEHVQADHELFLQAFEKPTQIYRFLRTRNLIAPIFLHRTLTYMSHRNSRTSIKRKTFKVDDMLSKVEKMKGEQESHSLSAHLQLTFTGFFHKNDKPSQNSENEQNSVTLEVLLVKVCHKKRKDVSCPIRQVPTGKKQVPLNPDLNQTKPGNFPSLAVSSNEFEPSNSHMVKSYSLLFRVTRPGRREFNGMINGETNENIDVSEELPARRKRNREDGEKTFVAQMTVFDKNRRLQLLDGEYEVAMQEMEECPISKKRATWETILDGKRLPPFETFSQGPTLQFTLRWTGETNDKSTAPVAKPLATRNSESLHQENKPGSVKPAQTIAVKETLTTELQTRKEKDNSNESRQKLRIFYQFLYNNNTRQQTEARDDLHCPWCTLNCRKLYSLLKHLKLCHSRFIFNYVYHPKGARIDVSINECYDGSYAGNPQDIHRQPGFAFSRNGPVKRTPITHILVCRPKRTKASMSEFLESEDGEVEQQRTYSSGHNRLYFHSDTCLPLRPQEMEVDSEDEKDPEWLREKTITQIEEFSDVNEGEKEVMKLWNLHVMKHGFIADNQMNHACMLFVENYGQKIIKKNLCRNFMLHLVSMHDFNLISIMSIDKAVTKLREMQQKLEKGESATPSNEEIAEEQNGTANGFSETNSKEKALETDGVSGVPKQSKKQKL

Data on 3 molecules can be found in paper doi:10.1101/382473.

No constants are given. Whether binding was seen depends on the method and setting. In cells and extracts the contact can be indirect. Some entries that bind do so weakly or less than the wild type.

Turning to RING1b (from UniProt Q9CQJ4 1-336), the binding result is on record as “binds”.

Consider SUZ12 (from UniProt Q80U70 1-741), for which the binding entry is “binds”.

B1: SMC1a (protein, UniProt Q9CU62 1-1233)
chain: MGFLKLIEIENFKSYKGRQIIGPFQRFTAIIGPNGSGKSNLMDAISFVLGEKTSNLRVKTLRDLIHGAPVGKPAANRAFVSMVYSEEGAEDRTFARVIVGGSSEYKINNKVVQLHEYSEELEKLGILIKARNFLVFQGAVESIAMKNPKERTALFEEISRSGELAQEYDKRKKEMVKAEEDTQFNYHRKKNIAAERKEAKQEKEEADRYQRLKDEVVRAQVQLQLFKLYHNEVEIEKLNKELASKNKEIEKDKKRMDKVEDELKEKKKELGKMMREQQQIEKEIKEKDSELNQKRPQYIKAKENTSHKIKKLEAAKKSLQNAQKHYKKRKGDMDELEKEMLSVEKARQEFEERMEEESQSQGRDLTLEENQVKKYHRLKEEASKRAATLAQELEKFNRDQKADQDRLDLEERKKVETEAKIKQKLREIEENQKRIEKLEEYITTSKQSLEEQKKLEGELTEEVEMAKRRIDEINKELNQVMEQLGDARIDRQESSRQQRKAEIMESIKRLYPGSVYGRLIDLCQPTQKKYQIAVTKVLGKNMDAIIVDSEKTGRDCIQYIKEQRGEPETFLPLDYLEVKPTDEKLRELKGAKLVIDVIRYEPPHIKKALQYACGNALVCDNVEDARRIAFGGHQRHKTVALDGTLFQKSGVISGGASDLKAKARRWDEKAVDKLKEKKERLTEELKEQMKAKRKEAELRQVQSQAHGLQMRLKYSQSDLEQTKTRHLALNLQEKSKLESELANFGPRINDIKRIIQSREREMKDLKEKMNQVEDEVFEEFCREIGVRNIREFEEEKVKRQNEIAKKRLEFENQKTRLGIQLDFEKNQLKEDQDKVHMWEQTVKKDENEIEKLKKEEQRHMKIIDETMAQLQDLKNQHLAKKSEVNDKNHEMEEIRKKLGGANKEMTHLQKEVTAIETKLEQKRSDRHNLLQACKMQDIKLPLSKGTMDDISQEEGSSQGEESVSGSQRTSSIYAREALIEIDYGDLCEDLKDAQAEEEIKQEMNTLQQKLNEQQSVLQRIAAPNMKAMEKLESVRDKFQETSDEFEAARKRAKKAKQAFEQIKKERFDRFNACFESVATNIDEIYKALSRNSSAQAFLGPENPEEPYLDGINYNCVAPGKRFRPMDNLSGGEKTVAALALLFAIHSYKPAPFFVLDEIDAALDNTNIGKVANYIKEQSTCNFQAIVISLKEEFYTKAESLIGVYPEQGDCVISKVLTFDLTKYPDANPNPNEQ
On to B1, for which the binding entry was “binds”.
